In publication doi:10.1101/2023.10.02.560568:
These are yes or no findings as the source states them, for the method shown. In cells and extracts the contact can be indirect. Some results given as binding are weak or reduced against the parent protein; the word gives no strength. Where a sequence is shown, tags or fusion partners need not be part of it.

Amino acid sequences for entries named in this document (tags omitted).
UniProt Q9NX07: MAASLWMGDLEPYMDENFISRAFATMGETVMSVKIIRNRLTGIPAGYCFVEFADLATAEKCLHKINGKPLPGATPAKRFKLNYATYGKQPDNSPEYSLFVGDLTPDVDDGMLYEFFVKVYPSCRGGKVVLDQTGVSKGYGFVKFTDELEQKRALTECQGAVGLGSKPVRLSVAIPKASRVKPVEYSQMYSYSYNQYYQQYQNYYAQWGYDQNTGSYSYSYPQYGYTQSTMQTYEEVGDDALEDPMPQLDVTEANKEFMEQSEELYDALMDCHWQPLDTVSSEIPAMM

Experiments:
[1] = molecular target: SECp43 (UniProt Q9NX07); assay: co-IP
[2] = molecular target: T1, selenocysteine-specific elongation factor EEFSEC (UniProt P57772); assay: co-IP
T1 sequence: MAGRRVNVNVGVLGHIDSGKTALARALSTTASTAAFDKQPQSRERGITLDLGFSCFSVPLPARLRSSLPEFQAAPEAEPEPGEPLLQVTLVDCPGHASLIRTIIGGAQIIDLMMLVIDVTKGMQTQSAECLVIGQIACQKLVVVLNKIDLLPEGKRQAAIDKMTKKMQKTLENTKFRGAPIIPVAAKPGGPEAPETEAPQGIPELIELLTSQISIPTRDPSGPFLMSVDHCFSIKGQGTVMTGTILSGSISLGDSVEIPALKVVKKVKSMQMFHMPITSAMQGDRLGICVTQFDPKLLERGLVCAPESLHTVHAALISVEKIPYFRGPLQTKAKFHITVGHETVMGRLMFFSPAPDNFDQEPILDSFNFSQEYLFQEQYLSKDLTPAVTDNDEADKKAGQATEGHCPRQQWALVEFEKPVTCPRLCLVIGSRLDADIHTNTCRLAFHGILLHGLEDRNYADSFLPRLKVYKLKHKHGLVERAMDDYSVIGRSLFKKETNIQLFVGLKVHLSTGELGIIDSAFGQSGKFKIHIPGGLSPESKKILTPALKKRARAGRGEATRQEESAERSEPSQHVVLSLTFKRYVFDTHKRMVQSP

binding [1]: binds | binding [2]: binds
B1: FTSJ1 (tagged, overexpressed) (enzyme, UniProt Q9UET6 1-329)
chain: MGRTSKDKRDVYYRLAKENGWRARSAFKLLQLDKEFQLFQGVTRAVDLCAAPGSWSQVLSQKIGGQGSGHVVAVDLQAMAPLPGVVQIQGDITQLSTAKEIIQHFKGCPADLVVCDGAPDVTGLHDVDEYMQAQLLLAALNIATHVLKPGGCFVAKIFRGRDVTLLYSQLQVFFSSVLCAKPRSSRNSSIEAFAVCQGYDPPEGFIPDLSKPLLDHSYDPDFNQLDGPTRIIVPFVTCGDLSSYDSDRSYPLDLEGGSEYKYTPPTQPPISPPYQEACTLKRKGQLAKEIRPQDCPISRVDTFPQPLAAPQCHTLLAPEMEDNEMSCSP
